For this experiment, the target named is enolase 1 (Eno1) (mouse (endogenous in EO771)) (UniProt P17182). Nature of the experiment: co-IP; EO771 protein extracts (RIPA lysis buffer) precleared with protein A agarose beads and rabbit IgG, immunoprecipitated overnight with beads conjugated with anti-Eno1 antibodies; Western blot with anti-CD44 and anti-Eno1.

Chains of the proteins cited; added tags and fusions are not shown.
UniProt P17182: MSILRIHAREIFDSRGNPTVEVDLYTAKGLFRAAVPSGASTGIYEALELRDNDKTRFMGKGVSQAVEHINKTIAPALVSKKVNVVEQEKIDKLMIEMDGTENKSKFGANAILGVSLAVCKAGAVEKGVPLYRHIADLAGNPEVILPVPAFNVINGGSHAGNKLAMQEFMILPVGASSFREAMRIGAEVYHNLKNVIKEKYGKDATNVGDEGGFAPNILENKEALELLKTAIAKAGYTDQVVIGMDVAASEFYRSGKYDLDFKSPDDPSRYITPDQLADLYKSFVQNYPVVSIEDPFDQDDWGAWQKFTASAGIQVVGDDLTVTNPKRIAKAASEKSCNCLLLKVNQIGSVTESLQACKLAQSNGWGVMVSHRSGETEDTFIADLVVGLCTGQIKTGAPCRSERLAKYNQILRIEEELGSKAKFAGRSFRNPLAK

No constants are given. Whether binding was seen depends on the method and setting. Binding seen in cells or lysates may run through a third protein. Some entries that bind do so weakly or less than the wild type.

B1: CD44, a transmembrane adhesion receptor (receptor, UniProt P15379 23-778)
chain: QIDLNVTCRYAGVFHVEKNGRYSISRTEAADLCQAFNSTLPTMDQMKLALSKGFETCRYGFIEGNVVIPRIHPNAICAANHTGVYILVTSNTSHYDTYCFNASAPPEEDCTSVTDLPNSFDGPVTITIVNRDGTRYSKKGEYRTHQEDIDASNIIDDDVSSGSTIEKSTPEGYILHTYLPTEQPTGDQDDSFFIRSTLATIASTVHSKSHAAAQKQNNWIWSWFGNSQSTTQTQEPTTSATTALMTTPETPPKRQEAQNWFSWLFQPSESKSHLHTTTKMPGTESNTNPTGWEPNEENEDETDTYPSFSGSGIDDDEDFISSTIATTPRVSARTEDNQDWTQWKPNHSNPEVLLQTTTRMADIDRISTSAHGENWTPEPQPPFNNHEYQDEEETPHATSTTPNSTAEAAATQQETWFQNGWQGKNPPTPSEDSHVTEGTTASAHNNHPSQRITTQSQEDVSWTDFFDPISHPMGQGHQTESKDTDSSHSTTLQPTAAPNTHLVEDLNRTGPLSVTTPQSHSQNFSTLHGEPEEDENYPTTSILPSSTKSSAKDARRGGSLPTDTTTSVEGYTFQYPDTMENGTLFPVTPAKTEVFGETEVTLATDSNVNVDGSLPGDRDSSKDSRGSSRTVTHGSELAGHSSANQDSGVTTTSGPMRRPQIPEWLIILASLLALALILAVCIAVNSRRRCGQKKKLVINGGNGTVEDRKPSELNGEASKSQEMVHLVNKEPSETPDQCMTADETRNLQSVDMKIGV
Regarding B1, the binding entry is recorded as “binds”.
